Two molecules from paper PMC4352044 can be followed below.

Substitutions are numbered along the chain they refer to. These are yes or no findings as the source states them, for the method shown. Binding seen in cells or lysates may run through a third protein. Some entries that bind do so weakly or less than the wild type.

What all share (test): co-IP; anti-HA immunoprecipitation of Scc3-6HA (wild type or mutant) from yeast lysates, mid-log cells; IPH150 or IPH50 buffer (50 mM Tris pH 8.0, 150/50 mM NaCl, 5 mM EDTA, 0.5% NP-40, 1 mM DTT), 4°C, protein A/G agarose, Western blot of partners; also in wpl1Δ strains and after depletion of Pds5-3V5-AID with 1 mM IAA
One experiment concerns the target T1, Scc3-6HA (budding yeast) (UniProt P40541).
T1 sequence: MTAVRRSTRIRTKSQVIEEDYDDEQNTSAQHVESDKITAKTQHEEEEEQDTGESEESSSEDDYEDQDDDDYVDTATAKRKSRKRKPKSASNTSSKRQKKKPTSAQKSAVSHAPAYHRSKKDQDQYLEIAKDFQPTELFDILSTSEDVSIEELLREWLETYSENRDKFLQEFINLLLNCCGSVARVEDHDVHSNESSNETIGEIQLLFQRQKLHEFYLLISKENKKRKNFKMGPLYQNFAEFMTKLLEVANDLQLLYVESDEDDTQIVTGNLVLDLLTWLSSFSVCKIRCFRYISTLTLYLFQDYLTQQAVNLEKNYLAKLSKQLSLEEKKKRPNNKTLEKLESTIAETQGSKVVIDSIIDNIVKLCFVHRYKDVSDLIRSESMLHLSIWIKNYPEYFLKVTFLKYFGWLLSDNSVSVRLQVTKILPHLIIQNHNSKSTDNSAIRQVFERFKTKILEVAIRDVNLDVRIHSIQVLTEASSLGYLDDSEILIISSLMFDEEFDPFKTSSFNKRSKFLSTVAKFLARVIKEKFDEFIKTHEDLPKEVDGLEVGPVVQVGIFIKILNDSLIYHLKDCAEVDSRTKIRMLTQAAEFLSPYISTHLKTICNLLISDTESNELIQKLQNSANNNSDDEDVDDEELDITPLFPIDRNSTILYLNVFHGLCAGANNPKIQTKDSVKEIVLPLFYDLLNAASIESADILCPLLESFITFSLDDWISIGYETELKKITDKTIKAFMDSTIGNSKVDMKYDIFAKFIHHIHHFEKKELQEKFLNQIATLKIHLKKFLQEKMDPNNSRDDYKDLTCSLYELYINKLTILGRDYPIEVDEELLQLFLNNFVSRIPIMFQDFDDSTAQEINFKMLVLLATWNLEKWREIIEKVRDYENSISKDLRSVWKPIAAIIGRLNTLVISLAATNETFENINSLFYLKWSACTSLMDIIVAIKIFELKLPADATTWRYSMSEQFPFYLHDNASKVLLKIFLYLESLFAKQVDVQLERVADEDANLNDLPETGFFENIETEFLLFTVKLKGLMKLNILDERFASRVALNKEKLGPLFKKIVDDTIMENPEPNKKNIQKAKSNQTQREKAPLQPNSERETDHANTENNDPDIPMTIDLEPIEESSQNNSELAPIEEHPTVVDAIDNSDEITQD

Experiment [1] deals with T2, scc3-Y371A-6HA (budding yeast) (UniProt P40541).
T2 sequence: T1 sequence with Y371A

Experiment [2] has as its target T3, Scc3-6HA (budding yeast), P40541.
T3 chain: T1 sequence
The settings on record: remark: other sources report otherwise.

B1: Smc3 (protein, UniProt P47037 1-1230)
chain: MYIKRVIIKGFKTYRNETIIDNFSPHQNVIIGSNGSGKSNFFAAIRFVLSDDYSNLKREERQGLIHQGSGGSVMSASVEIVFHDPDHSMILPSGVLSRGDDEVTIRRTVGLKKDDYQLNDRNVTKGDIVRMLETAGFSMNNPYNIVPQGKIVALTNAKDKERLQLLEDVVGAKSFEVKLKASLKKMEETEQKKIQINKEMGELNSKLSEMEQERKELEKYNELERNRKIYQFTLYDRELNEVINQMERLDGDYNNTVYSSEQYIQELDKREDMIDQVSKKLSSIEASLKIKNATDLQQAKLRESEISQKLTNVNVKIKDVQQQIESNEEQRNLDSATLKEIKSIIEQRKQKLSKILPRYQELTKEEAMYKLQLASLQQKQRDLILKKGEYARFKSKDERDTWIHSEIEELKSSIQNLNELESQLQMDRTSLRKQYSAIDEEIEELIDSINGPDTKGQLEDFDSELIHLKQKLSESLDTRKELWRKEQKLQTVLETLLSDVNQNQRNVNETMSRSLANGIINVKEITEKLKISPESVFGTLGELIKVNDKYKTCAEVIGGNSLFHIVVDTEETATLIMNELYRMKGGRVTFIPLNRLSLDSDVKFPSNTTTQIQFTPLIKKIKYEPRFEKAVKHVFGKTIVVKDLGQGLKLAKKHKLNAITLDGDRADKRGVLTGGYLDQHKRTRLESLKNLNESRSQHKKILEELDFVRNELNDIDTKIDQVNGNIRKVSNDRESVLTNIEVYRTSLNTKKNEKLILEESLNAIILKLEKLNTNRTFAQEKLNTFENDLLQEFDSELSKEEKERLESLTKEISAAHNKLNITSDALEGITTTIDSLNAELESKLIPQENDLESKMSEVGDAFIFGLQDELKELQLEKESVEKQHENAVLELGTVQREIESLIAEETNNKKLLEKANNQQRLLLKKLDNFQKSVEKTMIKKTTLVTRREELQQRIREIGLLPEDALVNDFSDITSDQLLQRLNDMNTEISGLKNVNKRAFENFKKFNERRKDLAERASELDESKDSIQDLIVKLKQQKVNAVDSTFQKVSENFEAVFERLVPRGTAKLIIHRKNDNANDHDESIDVDMDAESNESQNGKDSEIMYTGVSISVSFNSKQNEQLHVEQLSGGQKTVCAIALILAIQMVDPASFYLFDEIDAALDKQYRTAVATLLKELSKNAQFICTTFRTDMLQVADKFFRVKYENKISTVIEVNREEAIGFIRGSNKFAEV
Consider B1, for which the binding result (with Scc3-6HA (budding yeast); in experiment [1]) was “binds” each time.

B2: Pds5, Q04264 1-1277 (protein)
chain: MAKGAVTKLKFNSPIISTSDQLISTNELLDRLKALHEELASLDQDNTDLTGLDKYRDALVSRKLLKHKDVGIRAFTACCLSDILRLYAPDAPYTDAQLTDIFKLVLSQFEQLGDQENGYHIQQTYLITKLLEYRSIVLLADLPSSNNLLIELFHIFYDPNKSFPARLFNVIGGILGEVISEFDSVPLEVLRLIFNKFLTYNPNEIPEGLNVTSDCGYEVSLILCDTYSNRMSRHLTKYYSEIIHEATNDDNNSRLLTVVVKLHKLVLRLWETVPELINAVIGFIYHELSSENELFRKEATKLIGQILTSYSDLNFVSTHSDTFKAWISKIADISPDVRVEWTESIPQIIATREDISKELNQALAKTFIDSDPRVRRTSVMIFNKVPVTEIWKNITNKAIYTSLLHLAREKHKEVRELCINTMAKFYSNSLNEIERTYQNKEIWEIIDTIPSTLYNLYYINDLNINEQVDSVIFEYLLPFEPDNDKRVHRLLTVLSHFDKKAFTSFFAFNARQIKISFAISKYIDFSKFLNNQESMSSSQGPIVMNKYNQTLQWLASGLSDSTKAIDALETIKQFNDERIFYLLNACVTNDIPFLTFKNCYNELVSKLQTPGLFKKYNISTGASIMPRDIAKVIQILLFRASPIIYNVSNISVLLNLSNNSDAKQLDLKRRILDDISKVNPTLFKDQIRTLKTIIKDLDDPDAEKNDNLSLEEALKTLYKASKTLKDQVDFDDTFFFTKLYDFAVESKPEITKYATKLIALSPKAEETLKKIKIRILPLDLQKDKYFTSHIIVLMEIFKKFPHVLNDDSTDIISYLIKEVLLSNQVVGDSKKEIDWVEDSLLSDTKYSAIGNKVFTLKLFTNKLRSIAPDVPRDELAESFTEKTMKLFFYLIASGGELISEFNKEFYPTPSNYQTKLRCVAGIQVLKLARISNLNNFIKPSDIIKLINLVEDESLPVRKTFLEQLKDYVANELISIKFLPLVFFTAYEPDVELKTTTKIWINFTFGLKSFKKGTIFERALPRLIHAIAHHPDIVGGLDSEGDAYLNALTTAIDYLLFYFDSIAAQENFSLLYYLSERVKNYQDKLVEDEIDEEEGPQKEEAPKKHRPYGQKMYIIGELSQMILLNLKEKKNWQHSAYPGKLNLPSDLFKPFATVQEAQLSFKTYIPESLTEKIQNNIKAKIGRILHTSQTQRQRLQKRLLAHENNESQKKKKKVHHARSQADDEEGDGDRESDSDDDSYSPSNKNETKKGHENIVMKKLRVRKEVDYKDDEDDDIEMT
Turning to B2, in experiment [2], the binding result is reported as “binds”.
